# Data from US20190135934A1 (published 2019).
# Changes are numbered by the printed parent chain. Results are given in words; binding and its absence hold for the method and conditions named. Some results given as binding are weak or reduced against the parent protein; the word gives no strength.
# B1: novel CD20 antibody H102YW (antibody, human IgG1, V domains shown)
# VH: QVQLQQPGAELVKPGASVKMSCKASGYTFTSYNMHWVKQTPGRGLEWIGAIYPGNGDTSYNQKFKGKATLTADKSSSTAYMQLSSLTSEDSAVYYCARSTYWGGDWYFNVWGAGTTVTVSA
# VL: QIVLSQSPAILSASPGEKVTMTCRASSSVSYIHWFQQKPGSSPKPWIYATSNLASGVPVRFSGSGSGTSYSLTISRVEAEDAATYYCQQWTSNPPTFGGGTKLEIKV
# B2: novel CD20 antibody H102YT (antibody, human IgG1, V domains shown)
# VH: B1 VH with W102T
# VL: B1 VL
# Biological target: T1, CD20 protein on CD20 protein-positive lymphoma cell Raji (ATCC CCL-86) (UniProt P11836)
# T1 sequence (looked up): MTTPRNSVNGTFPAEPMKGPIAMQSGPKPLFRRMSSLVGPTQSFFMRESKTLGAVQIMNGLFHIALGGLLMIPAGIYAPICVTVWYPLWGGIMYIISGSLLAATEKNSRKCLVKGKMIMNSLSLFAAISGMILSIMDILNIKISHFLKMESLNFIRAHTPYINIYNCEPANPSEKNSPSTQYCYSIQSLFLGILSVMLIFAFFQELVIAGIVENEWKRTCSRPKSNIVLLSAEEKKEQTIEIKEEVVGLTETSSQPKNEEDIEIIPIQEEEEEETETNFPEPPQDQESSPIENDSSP
# Assay: flow cytometry, fluorescently labeled antibody on Raji cells
row,Binder,binding
1,B1,binds
2,B2,binds
